Experimental data as given in publication PMC3514159.
No constants are given. Whether binding was seen depends on the method and setting. In cells and extracts the contact can be indirect. Some binding calls cover weakened binding; strength is not graded here.

The chains behind the UniProt entries cited, without tags or fusion partners.
UniProt Q9BYM8: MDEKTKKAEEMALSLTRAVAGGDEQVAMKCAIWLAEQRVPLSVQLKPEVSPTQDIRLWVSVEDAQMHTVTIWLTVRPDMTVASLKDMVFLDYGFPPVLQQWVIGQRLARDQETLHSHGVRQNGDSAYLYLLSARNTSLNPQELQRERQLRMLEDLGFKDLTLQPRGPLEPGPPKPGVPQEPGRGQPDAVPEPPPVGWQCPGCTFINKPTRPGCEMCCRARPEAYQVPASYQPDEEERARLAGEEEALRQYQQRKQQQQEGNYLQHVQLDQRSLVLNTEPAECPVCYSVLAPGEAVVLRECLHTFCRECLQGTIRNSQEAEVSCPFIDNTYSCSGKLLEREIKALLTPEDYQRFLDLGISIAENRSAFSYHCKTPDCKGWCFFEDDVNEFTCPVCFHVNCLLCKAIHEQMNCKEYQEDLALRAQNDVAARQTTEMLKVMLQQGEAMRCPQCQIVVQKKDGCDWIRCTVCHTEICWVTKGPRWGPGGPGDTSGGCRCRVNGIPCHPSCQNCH
UniProt Q99697: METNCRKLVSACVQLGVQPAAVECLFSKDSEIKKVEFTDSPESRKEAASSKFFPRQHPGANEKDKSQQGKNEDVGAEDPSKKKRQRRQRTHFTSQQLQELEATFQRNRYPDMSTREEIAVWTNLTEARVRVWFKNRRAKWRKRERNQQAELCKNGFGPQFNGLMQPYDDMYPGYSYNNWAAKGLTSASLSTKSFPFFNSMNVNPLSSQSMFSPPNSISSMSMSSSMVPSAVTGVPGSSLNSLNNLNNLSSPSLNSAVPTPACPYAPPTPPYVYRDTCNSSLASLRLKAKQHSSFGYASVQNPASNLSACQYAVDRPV
UniProt P09022: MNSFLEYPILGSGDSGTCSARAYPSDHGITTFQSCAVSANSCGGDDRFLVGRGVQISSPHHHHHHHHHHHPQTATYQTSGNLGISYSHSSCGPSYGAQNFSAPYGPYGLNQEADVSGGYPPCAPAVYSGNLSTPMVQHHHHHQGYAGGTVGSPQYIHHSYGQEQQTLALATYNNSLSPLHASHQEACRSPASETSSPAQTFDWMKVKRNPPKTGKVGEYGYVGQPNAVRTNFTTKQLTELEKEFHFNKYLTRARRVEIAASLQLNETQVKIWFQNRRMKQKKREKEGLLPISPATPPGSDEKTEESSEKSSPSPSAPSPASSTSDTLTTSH

Columns and labels:
Experiment in all cases: pull-down; GST-hORF and FLAG-Hoxa1 co-expressed in COS7 or HEK293T; cleared lysate (Tris-HCl pH7.5 20mM, NaCl 120mM, EDTA 0.5mM, NP40 0.5%, glycerol 10%) overnight on glutathione-agarose beads, 3 washes; anti-FLAG western blot
[1] = target: T1, RAB33A (member RAS oncogene family) (human) (UniProt Q14088)
T1 sequence: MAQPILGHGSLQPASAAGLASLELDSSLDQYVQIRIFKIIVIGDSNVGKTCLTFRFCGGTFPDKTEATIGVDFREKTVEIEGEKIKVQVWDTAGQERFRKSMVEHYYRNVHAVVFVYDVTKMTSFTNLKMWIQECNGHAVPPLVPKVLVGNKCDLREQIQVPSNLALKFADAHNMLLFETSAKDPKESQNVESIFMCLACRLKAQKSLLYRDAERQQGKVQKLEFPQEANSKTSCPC

[2] = target: RanBP-type and C3HC4-type zinc finger containing 1 (human) (UniProt Q9BYM8)
[3] = target: T2, four and a half LIM domains 5 (human) (UniProt Q5TD97)
T2 sequence: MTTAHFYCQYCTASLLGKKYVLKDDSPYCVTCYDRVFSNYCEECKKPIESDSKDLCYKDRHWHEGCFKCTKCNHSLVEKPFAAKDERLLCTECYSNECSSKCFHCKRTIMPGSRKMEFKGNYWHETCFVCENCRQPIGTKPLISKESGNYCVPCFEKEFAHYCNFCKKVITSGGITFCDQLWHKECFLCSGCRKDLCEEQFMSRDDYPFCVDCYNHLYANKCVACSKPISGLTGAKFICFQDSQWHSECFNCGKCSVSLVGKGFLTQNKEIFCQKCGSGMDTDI

[4] = target: T3, lectin, galactoside-binding, soluble, 13 (human) (UniProt Q9UHV8)
T3 sequence: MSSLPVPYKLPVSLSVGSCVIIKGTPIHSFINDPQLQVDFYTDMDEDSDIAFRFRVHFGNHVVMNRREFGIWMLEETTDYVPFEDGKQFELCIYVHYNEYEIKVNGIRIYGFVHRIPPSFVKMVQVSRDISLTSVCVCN

leupaxin (human) = target: T4, leupaxin (human) (UniProt O60711)
T4 sequence: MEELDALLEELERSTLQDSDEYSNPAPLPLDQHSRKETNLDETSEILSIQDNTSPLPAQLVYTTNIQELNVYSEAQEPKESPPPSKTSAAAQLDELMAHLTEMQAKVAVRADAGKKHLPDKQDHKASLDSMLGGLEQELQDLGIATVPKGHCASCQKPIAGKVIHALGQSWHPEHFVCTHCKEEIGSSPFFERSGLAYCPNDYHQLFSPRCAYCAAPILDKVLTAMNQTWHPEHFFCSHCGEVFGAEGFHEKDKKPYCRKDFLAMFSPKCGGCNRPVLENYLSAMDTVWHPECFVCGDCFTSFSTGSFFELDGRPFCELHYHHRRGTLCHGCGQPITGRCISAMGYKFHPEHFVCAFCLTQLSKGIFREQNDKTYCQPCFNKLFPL

[5] = target: paired-like homeodomain 2 (human) (UniProt Q99697)
[6] = target: T5, phospholipid scramblase 1 (human) (UniProt O15162)
T5 sequence: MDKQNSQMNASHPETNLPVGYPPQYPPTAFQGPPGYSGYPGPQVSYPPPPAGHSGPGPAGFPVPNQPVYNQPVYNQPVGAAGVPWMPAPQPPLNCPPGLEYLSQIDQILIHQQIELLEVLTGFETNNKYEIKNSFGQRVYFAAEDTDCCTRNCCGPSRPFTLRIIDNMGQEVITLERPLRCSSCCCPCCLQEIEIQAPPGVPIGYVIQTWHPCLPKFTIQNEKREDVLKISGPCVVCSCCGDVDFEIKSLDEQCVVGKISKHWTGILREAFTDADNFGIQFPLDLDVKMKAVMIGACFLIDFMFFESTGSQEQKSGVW

Measured: binding

FLAG-Hoxa1 (from UniProt P09022 1-331)
binds: all assays above
